“And” between values parts separate entries of the source, which are not always exact repeats. Identical values can stand only once. Counter-ions that a name gives are not always drawn. ± gives the standard deviation of the averaged measurements. This is one part of the list. Most values come without repeats; read them as rough.
Tested on: RAW 264.7
Assay: cell viability (MTT) relative to vehicle control; higher = more viable cells
Conditions: stimulus: HMGB1 5 ug/ml, 18 h
[1] = compound concentration: 1 ug/ml

Structure (SMILES)	cell viability (compound concentration: 3 uM)	cell viability [1] [%]
Nc1nc(OCc2ccccc2)c2nc[nH]c2n1 [O6-benzylguanine]	101%	–
OC(CN1CCN(c2cccc(Cl)c2)CC1)C(c1ccccc1)c1ccccc1 (stereo not given)	93.8%	–
CN(C)[C@@H]1C(O)=C(C(N)=O)C(=O)[C@@]2(O)C(O)=C3C(=O)c4c(O)cccc4[C@@](C)(O)[C@H]3[C@H](O)[C@@H]12 [Oxytetracycline hydrochloride]	–	91.7
CN(C)[C@@H]1C(O)=C(C(N)=O)C(=O)[C@@]2(O)C(O)=C3C(=O)c4c(O)cccc4[C@@](C)(O)[C@H]3[C@H](O)[C@@H]12 [Oxytetracycline dihydrate]	86.5%	–
CN(C)[C@@H]1C(O)=C(C(N)=O)C(=O)[C@@]2(O)C(O)=C3C(=O)c4c(O)cccc4[C@@](C)(O)[C@H]3[C@H](O)[C@@H]12	112%	–
COc1cc(-c2cc(=O)c3c(O)c(OC)c(OC4OC(COC5OC(C)C(O)C(O)C5O)C(O)C(O)C4O)cc3o2)ccc1O (stereo not given) [Demethoxycentaureidin 7-O-rutinoside]	–	103
Nc1ccc(CCNc2ncnc3c2ncn3C2OC(CO)C(O)C2O)cc1 (stereo not given) [N6-2-(4-Aminophenyl)ethyladenosine]	103%	–
Oc1cc2c(cc1O)[C@@H]1c3ccc(O)c(O)c3OC[C@]1(O)C2 [Hematoxylin]	–	95.5
CC(=O)[C@H]1CC[C@H]2[C@@H]3CC=C4C[C@@H](O)CC[C@]4(C)[C@H]3CC[C@]12C	118%	–
CC(=O)[C@H]1CC[C@H]2[C@@H]3CC=C4C[C@@H](O)CC[C@]4(C)[C@H]3CC[C@]12C [Pregnenolone]	99.2 ± 5.3%	–
COc1ccc(CC2c3cc(OC)c(OC)cc3CC[N+]2(C)CCC(=O)OCCCCCOC(=O)CC[N+]2(C)CCc3cc(OC)c(OC)cc3C2Cc2ccc(OC)c(OC)c2)cc1OC (stereo not given) [Atracurium]	108%	–
COc1ccc(CC2c3cc(OC)c(OC)cc3CC[N+]2(C)CCC(=O)OCCCCCOC(=O)CC[N+]2(C)CCc3cc(OC)c(OC)cc3C2Cc2ccc(OC)c(OC)c2)cc1OC (stereo not given) [Atracurium besylate]	116%	–
COc1ccc(CC2c3cc(OC)c(OC)cc3CC[N+]2(C)CCC(=O)OCCCCCOC(=O)CC[N+]2(C)CCc3cc(OC)c(OC)cc3C2Cc2ccc(OC)c(OC)c2)cc1OC (stereo not given)	106%	–
CN(C)c1ccc(C(=C2C=CC(=[N+](C)C)C=C2)c2ccc(N(C)C)cc2)cc1	32%	–
O=c1ccn([C@@H]2O[C@H](COP(=O)(O)OP(=O)(O)OP(=O)(O)O)[C@@H](O)[C@H]2O)c(=O)[nH]1 [Uridine 5'-triphosphate trisodium salt hydrate]	–	105
CC(C)c1ccc2c(c1)c(SC(C)(C)C)c(CC(C)(C)C(=O)O)n2Cc1ccc(Cl)cc1	89.5% and 85.9%	–
CCN(CCO)CCCC(C)Nc1ccnc2cc(Cl)ccc12 (stereo not given)	111%	–
CCOC(=O)NNc1nncc2ccccc12 [Todralazine hydrochloride]	93.3%	–
CCOC(=O)NNc1nncc2ccccc12	105%	–
CCCCN1CCCCC1C(=O)Nc1c(C)cccc1C (stereo not given) [Bupivacaine]	105%	–
CCCCN1CCCCC1C(=O)Nc1c(C)cccc1C (stereo not given)	106%	–
CCCCN1CCCCC1C(=O)Nc1c(C)cccc1C (stereo not given) [Bupivacaine hydrochloride]	101%	–
CC(COc1ccccc1)NC(C)C(O)c1ccc(O)cc1 (stereo not given) [Isoxsuprine hydrochloride]	105%	–
CC(COc1ccccc1)NC(C)C(O)c1ccc(O)cc1 (stereo not given)	94.2%	–
CC(C)(C)c1ccc(C(O)CCCN2CCC(C(O)(c3ccccc3)c3ccccc3)CC2)cc1 (stereo not given) [Terfenadine]	102 ± 7%	–
CC(C)(C)c1ccc(C(O)CCCN2CCC(C(O)(c3ccccc3)c3ccccc3)CC2)cc1 (stereo not given)	82.9%	–
COc1ccnc(C[S+]([O-])c2nc3cc(OC(F)F)ccc3[nH]2)c1OC (stereo not given) [Pantoprazole]	104%	–

Structure (SMILES)	cell viability (compound concentration: 3 uM)	cell viability [1] [%]
COc1ccnc(C[S+]([O-])c2nc3cc(OC(F)F)ccc3[nH]2)c1OC (stereo not given)	92% and 113%	–
O=C(NCCO)c1ccc2c(c1)nc(Nc1cccc(Cl)c1)c1ccncc12 [CK2 Inhibitor 2]	109%	–
Nc1ccn([C@@H]2O[C@H](CO)[C@@H](O)[C@@H]2O)c(=O)n1 [Cytosine-1-beta-D-arabinofuranoside hydrochloride]	79.2%	–
Nc1ccn([C@@H]2O[C@H](CO)[C@@H](O)[C@@H]2O)c(=O)n1	79.1 ± 8.2%	–
Nc1ccn([C@@H]2O[C@H](CO)[C@@H](O)[C@@H]2O)c(=O)n1 [Cytarabine]	96.4 ± 7.3%	–
Nc1ncnc2c1ncn2C1CCCO1 (stereo not given)	119%	–
O=c1[nH]c(=O)c2ccccc2o1	109%	–
CO[C@H]1C[C@H](O[C@H]2[C@H](C)[C@@H](O[C@@H]3O[C@H](C)C[C@H](N(C)C)[C@H]3O)[C@@H](C)C[C@@]3(CO3)C(=O)[C@H](C)[C@@H](O)[C@@H](C)[C@@H](C)OC(=O)[C@@H]2C)O[C@@H](C)[C@@H]1O	108 ± 5%	–
Nc1ccc(S(=O)(=O)Nc2ccccn2)cc1	102%	–
Nc1ccc(S(=O)(=O)Nc2ccccn2)cc1 [Sulfapyridine]	132%	–
O=C(O)[C@H]1O[C@@H](Oc2cc3oc(-c4ccccc4)cc(=O)c3c(O)c2O)[C@H](O)[C@@H](O)[C@@H]1O [Baicalin hydrate]	–	77.2
N[C@@H](Cc1ccc(O)c(I)c1)C(=O)O [3-Iodo-L-tyrosine]	97.8%	–
C[N+](C)(C)[C@@H](Cc1c[nH]c(=S)[nH]1)C(=O)[O-] [Ergothioneine]	114%	–
COc1cc([C@@H]2c3cc4c(cc3[C@@H](O[C@@H]3O[C@@H]5CO[C@@H](c6cccs6)O[C@H]5[C@H](O)[C@H]3O)[C@H]3COC(=O)[C@H]23)OCO4)cc(OC)c1O	63.6 ± 24%	–
CC(C)Cn1c(=O)n(C)c(=O)c2[nH]cnc21 [3-Isobutyl-1-methylxanthine]	102%	–
OC[C@H]1O[C@@H](n2cnc3c(N[C@H]4CCC[C@@H]4O)ncnc32)[C@@H](O)C1O (stereo partly drawn) [Adenosine, N-(2-hydroxycyclopentyl)-, (1S-trans)- [CAS]]	97.6%	–
O=C1NC(=O)/C(=C/c2ccc3c(c2)OC(F)(F)O3)S1	102%	–
CCOc1ccccc1OC(c1ccccc1)C1CNCCO1 (stereo not given) [Reboxetine mesylate]	112%	–
O=c1[nH]cnc2c1ncn2[C@@H]1O[C@H](CO)[C@@H](O)[C@H]1O	111%	–
O=c1[nH]cnc2c1ncn2[C@@H]1O[C@H](CO)[C@@H](O)[C@H]1O [Inosine]	–	105
CN(C)CCCN1c2ccccc2Sc2ccc(Cl)cc21 [Chlorpromazine]	110%	–
CN(C)CCCN1c2ccccc2Sc2ccc(Cl)cc21 [Chlorpromazine hydrochloride]	96.5 ± 8%	–
CN(C)CCCN1c2ccccc2Sc2ccc(Cl)cc21	98.2%	–
O=c1ccc2ccccc2o1 [Coumarin]	–	97.1
O=c1ccc2ccccc2o1	110%	–
COc1ccc(-c2coc3ccc(OC4OC(COC(C)=O)C(OC(C)=O)C(OC(C)=O)C4OC(C)=O)c(OC(C)=O)c3c2=O)cc1 (stereo not given)	–	113
CNC(=O)[C@H]1O[C@@H](n2cnc3c(NCc4cccc(I)c4)nc(Cl)nc32)[C@H](O)[C@@H]1O [Chloro-IB-MECA]	106%	–

Structure (SMILES)	cell viability (compound concentration: 3 uM)	cell viability [1] [%]
OCc1ccccc1O	101%	–
CCOC(=O)[C@@](C)(N)Cc1ccc(O)c(O)c1 [Methyldopate hydrochloride]	89.9%	–
CCOC(=O)[C@@](C)(N)Cc1ccc(O)c(O)c1	112%	–
O=C(c1ccccc1)c1ccc2n1CCC2C(=O)O (stereo not given)	94% and 106%	–
O=C(c1ccccc1)c1ccc2n1CCC2C(=O)O (stereo not given) [Ketorolac tromethamine]	87.9%	–
O=C(c1ccccc1)c1ccc2n1CCC2C(=O)O (stereo not given) [Ketorolac tris salt]	96.3%	–
COc1c(N2CCNC(C)C2)c(F)cc2c(=O)c(C(=O)O)cn(C3CC3)c12 (stereo not given)	103%	–
COc1c(N2CCNC(C)C2)c(F)cc2c(=O)c(C(=O)O)cn(C3CC3)c12 (stereo not given) [Gatifloxacin]	95.3 ± 12%	–
CC(C)(O)c1ccccc1CC[C@@H](SCC1(CC(=O)O)CC1)c1cccc(/C=C/c2ccc3ccc(Cl)cc3n2)c1	103% and 107%	–
CC(C)(O)c1ccccc1CC[C@@H](SCC1(CC(=O)O)CC1)c1cccc(/C=C/c2ccc3ccc(Cl)cc3n2)c1 [Montelukast]	117 ± 17%	–
O=C1NC(=O)C(c2ccccc2)(c2ccccc2)N1 [5,5-Diphenylhydantoin]	109%	–
O=C1NC(=O)C(c2ccccc2)(c2ccccc2)N1 [Phenytoin]	114%	–
CCN[C@@H]1C[C@H](N)[C@@H](O[C@H]2OC(CN)=CC[C@H]2N)[C@H](O)[C@H]1O[C@H]1OC[C@](C)(O)[C@H](NC)[C@H]1O	108%	–
FC(F)(F)COCC(F)(F)F	104%	–
COc1cccc2c1C(=O)CC(c1ccccc1)O2 (stereo not given) [5-Methoxyflavanone]	–	101
CN1Cc2c(N)cccc2C(c2ccccc2)C1 (stereo not given) [Nomifensine maleate]	105 ± 16%	–
CN1Cc2c(N)cccc2C(c2ccccc2)C1 (stereo not given)	98.2%	–
COc1cc(/C=C/CO)cc(OC)c1O [Sinapyl Alcohol]	–	112
CC(=O)Oc1cccc(C)c1 [meta-CRESYL ACETATE]	109%	–
c1ccc(CNc2ncnc3nc[nH]c23)cc1 [Aminopurine, 6-benzyl]	100%	–
C=C(C)[C@@H]1CC=C(CO)CC1	134%	–
COc1cccc(C(=O)NCCN2CCN(c3ccc(Cl)cc3)CC2)c1	99%	–
C[C@@H]1C(=O)NC2=Nc3cccc(Cl)c3CN21 [Quazinone]	104%	–
COC(=O)Nc1nc2cc([S+]([O-])c3ccccc3)ccc2[nH]1 (stereo not given)	78.7%	–
COC(=O)Nc1nc2cc([S+]([O-])c3ccccc3)ccc2[nH]1 (stereo not given) [Oxfendazole]	85.9%	–
COC(=O)Nc1nc2cc([S+]([O-])c3ccccc3)ccc2[nH]1 (stereo not given) [Oxfendazol]	81.8%	–

Source: the supplement of paper PMC3682954
